This passage reports log2 fold change results from the supplement of paper PMC10849652.

Amino acid sequences for entries named in this document (tags omitted). A change or cut given only in a name is not applied to a line headed by its entry.
UniProt P99999: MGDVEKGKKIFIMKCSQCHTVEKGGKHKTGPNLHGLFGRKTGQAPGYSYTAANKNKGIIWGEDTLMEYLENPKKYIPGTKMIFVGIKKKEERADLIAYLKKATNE
UniProt Q13618, whole entry, looked up: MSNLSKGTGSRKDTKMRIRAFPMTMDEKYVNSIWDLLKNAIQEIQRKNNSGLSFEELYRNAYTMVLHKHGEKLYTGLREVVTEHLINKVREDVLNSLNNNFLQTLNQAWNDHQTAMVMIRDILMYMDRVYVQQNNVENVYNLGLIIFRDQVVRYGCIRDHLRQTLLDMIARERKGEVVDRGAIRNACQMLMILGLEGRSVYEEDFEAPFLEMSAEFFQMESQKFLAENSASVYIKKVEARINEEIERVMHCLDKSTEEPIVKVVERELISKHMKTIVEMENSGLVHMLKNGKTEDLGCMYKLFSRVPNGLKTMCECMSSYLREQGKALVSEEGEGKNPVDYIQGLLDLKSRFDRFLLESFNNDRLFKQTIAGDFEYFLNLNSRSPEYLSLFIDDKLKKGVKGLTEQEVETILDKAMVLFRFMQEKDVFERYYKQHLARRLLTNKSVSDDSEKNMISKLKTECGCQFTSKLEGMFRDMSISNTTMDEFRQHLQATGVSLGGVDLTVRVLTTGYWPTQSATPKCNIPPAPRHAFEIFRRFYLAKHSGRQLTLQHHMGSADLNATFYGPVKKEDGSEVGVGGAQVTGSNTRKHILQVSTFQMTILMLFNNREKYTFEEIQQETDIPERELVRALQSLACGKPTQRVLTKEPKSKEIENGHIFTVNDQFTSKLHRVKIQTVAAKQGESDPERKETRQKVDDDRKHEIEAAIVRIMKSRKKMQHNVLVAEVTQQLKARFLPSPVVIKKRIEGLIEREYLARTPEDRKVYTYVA
UniProt P41240: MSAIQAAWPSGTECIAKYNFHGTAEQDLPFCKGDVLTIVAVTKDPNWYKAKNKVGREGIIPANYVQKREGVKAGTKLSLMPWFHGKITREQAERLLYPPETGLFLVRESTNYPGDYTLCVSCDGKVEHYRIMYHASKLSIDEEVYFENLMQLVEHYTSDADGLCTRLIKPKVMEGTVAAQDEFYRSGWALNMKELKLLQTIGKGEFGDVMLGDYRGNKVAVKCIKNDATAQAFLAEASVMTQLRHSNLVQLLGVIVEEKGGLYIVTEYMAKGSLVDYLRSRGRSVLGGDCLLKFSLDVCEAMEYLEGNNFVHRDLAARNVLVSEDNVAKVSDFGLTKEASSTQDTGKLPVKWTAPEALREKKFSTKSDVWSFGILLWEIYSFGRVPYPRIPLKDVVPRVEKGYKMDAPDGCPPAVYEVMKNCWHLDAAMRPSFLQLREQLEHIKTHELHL
UniProt Q9NTM9: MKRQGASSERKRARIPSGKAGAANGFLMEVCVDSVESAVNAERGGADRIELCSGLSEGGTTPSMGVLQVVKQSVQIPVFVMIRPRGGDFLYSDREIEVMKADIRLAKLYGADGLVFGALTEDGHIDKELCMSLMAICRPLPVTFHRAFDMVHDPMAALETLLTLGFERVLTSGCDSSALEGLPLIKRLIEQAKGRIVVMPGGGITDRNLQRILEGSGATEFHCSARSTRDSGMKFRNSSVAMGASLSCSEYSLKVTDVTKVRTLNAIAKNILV
UniProt P67870, whole entry, looked up: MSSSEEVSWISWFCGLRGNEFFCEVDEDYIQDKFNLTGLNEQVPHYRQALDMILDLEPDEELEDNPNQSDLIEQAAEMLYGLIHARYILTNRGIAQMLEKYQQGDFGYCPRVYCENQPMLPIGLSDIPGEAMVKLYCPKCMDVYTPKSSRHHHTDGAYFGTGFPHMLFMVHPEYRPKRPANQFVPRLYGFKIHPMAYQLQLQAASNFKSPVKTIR
UniProt Q96F07, whole entry, looked up: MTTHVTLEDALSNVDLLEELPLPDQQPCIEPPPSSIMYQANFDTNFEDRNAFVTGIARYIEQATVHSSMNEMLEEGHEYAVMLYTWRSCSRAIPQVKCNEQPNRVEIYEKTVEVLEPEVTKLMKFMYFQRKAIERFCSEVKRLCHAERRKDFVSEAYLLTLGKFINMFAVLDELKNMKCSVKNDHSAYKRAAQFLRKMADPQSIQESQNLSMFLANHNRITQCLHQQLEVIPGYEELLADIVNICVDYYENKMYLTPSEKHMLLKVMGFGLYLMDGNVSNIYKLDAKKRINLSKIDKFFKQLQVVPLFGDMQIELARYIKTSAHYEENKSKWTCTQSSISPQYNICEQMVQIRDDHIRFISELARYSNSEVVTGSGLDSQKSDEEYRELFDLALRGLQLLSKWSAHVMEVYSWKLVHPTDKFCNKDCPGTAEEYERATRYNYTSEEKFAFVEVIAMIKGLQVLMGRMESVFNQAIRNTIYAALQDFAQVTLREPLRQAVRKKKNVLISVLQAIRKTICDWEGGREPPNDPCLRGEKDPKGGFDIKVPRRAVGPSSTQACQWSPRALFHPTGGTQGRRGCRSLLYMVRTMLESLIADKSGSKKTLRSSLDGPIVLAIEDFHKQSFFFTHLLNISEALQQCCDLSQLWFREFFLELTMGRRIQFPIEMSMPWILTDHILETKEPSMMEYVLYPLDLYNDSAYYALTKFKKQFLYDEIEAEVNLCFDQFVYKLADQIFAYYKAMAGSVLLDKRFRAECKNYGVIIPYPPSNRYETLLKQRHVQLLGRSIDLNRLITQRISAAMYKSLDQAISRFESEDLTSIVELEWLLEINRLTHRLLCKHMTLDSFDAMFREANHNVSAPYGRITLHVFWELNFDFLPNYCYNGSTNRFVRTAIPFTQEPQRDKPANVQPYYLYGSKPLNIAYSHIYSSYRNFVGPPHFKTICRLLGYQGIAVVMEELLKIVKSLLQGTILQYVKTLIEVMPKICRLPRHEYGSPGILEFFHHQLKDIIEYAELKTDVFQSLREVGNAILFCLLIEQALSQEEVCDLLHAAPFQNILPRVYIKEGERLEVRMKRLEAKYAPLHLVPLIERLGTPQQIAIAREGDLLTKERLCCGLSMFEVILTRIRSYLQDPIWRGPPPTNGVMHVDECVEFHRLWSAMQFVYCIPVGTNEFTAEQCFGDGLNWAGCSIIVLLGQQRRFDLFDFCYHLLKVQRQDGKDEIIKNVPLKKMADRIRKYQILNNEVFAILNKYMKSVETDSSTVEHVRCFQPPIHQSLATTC
UniProt P26232: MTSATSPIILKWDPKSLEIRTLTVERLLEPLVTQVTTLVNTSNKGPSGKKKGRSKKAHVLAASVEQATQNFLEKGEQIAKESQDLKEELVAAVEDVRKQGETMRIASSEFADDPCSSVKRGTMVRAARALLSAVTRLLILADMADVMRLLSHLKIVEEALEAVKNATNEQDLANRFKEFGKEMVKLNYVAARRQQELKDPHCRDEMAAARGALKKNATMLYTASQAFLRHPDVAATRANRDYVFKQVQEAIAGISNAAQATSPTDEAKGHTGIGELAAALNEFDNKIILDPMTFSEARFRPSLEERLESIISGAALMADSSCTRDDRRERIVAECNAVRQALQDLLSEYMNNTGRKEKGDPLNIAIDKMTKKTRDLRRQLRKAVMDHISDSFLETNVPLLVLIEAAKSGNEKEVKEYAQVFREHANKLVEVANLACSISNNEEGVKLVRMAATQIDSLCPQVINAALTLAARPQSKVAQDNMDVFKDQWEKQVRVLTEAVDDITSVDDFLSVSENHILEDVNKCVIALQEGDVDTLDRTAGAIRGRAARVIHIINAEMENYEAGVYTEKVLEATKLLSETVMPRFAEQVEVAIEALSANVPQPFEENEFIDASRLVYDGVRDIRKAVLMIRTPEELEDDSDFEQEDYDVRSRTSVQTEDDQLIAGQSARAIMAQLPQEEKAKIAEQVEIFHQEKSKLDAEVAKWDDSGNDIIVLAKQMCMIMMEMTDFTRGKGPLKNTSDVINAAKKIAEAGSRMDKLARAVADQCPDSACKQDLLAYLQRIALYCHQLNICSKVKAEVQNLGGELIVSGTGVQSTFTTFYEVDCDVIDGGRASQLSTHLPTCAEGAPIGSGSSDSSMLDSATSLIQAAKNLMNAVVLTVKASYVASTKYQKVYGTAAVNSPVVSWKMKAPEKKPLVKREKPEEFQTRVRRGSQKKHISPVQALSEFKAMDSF
UniProt P08574: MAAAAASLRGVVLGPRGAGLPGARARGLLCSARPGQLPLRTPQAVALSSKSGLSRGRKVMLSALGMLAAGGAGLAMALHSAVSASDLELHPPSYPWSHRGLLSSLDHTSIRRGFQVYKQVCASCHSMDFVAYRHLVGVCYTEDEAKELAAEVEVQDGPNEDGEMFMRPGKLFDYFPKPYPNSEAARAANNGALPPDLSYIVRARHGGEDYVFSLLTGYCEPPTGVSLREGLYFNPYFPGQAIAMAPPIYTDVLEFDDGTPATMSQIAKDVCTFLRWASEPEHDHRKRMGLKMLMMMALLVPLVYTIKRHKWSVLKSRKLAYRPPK
UniProt P49711: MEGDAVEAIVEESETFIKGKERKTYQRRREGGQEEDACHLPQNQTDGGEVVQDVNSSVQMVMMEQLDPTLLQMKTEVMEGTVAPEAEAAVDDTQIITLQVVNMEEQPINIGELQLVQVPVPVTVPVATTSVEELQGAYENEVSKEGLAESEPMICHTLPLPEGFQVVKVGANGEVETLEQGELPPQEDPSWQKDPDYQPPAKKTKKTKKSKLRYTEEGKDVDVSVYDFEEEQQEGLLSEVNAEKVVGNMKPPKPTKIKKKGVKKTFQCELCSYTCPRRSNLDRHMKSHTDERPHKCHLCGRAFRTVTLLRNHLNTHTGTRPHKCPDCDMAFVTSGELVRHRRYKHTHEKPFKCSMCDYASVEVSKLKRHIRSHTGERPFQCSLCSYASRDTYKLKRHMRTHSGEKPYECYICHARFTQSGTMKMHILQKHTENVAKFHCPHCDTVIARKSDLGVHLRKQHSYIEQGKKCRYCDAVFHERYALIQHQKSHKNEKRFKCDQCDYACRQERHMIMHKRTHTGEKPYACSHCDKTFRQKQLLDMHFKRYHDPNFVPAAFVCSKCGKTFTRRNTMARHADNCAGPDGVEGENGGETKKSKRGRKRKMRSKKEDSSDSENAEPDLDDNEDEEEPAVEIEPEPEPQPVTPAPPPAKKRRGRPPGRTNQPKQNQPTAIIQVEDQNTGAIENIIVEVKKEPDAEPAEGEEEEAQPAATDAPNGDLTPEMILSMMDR
UniProt Q1MSJ5: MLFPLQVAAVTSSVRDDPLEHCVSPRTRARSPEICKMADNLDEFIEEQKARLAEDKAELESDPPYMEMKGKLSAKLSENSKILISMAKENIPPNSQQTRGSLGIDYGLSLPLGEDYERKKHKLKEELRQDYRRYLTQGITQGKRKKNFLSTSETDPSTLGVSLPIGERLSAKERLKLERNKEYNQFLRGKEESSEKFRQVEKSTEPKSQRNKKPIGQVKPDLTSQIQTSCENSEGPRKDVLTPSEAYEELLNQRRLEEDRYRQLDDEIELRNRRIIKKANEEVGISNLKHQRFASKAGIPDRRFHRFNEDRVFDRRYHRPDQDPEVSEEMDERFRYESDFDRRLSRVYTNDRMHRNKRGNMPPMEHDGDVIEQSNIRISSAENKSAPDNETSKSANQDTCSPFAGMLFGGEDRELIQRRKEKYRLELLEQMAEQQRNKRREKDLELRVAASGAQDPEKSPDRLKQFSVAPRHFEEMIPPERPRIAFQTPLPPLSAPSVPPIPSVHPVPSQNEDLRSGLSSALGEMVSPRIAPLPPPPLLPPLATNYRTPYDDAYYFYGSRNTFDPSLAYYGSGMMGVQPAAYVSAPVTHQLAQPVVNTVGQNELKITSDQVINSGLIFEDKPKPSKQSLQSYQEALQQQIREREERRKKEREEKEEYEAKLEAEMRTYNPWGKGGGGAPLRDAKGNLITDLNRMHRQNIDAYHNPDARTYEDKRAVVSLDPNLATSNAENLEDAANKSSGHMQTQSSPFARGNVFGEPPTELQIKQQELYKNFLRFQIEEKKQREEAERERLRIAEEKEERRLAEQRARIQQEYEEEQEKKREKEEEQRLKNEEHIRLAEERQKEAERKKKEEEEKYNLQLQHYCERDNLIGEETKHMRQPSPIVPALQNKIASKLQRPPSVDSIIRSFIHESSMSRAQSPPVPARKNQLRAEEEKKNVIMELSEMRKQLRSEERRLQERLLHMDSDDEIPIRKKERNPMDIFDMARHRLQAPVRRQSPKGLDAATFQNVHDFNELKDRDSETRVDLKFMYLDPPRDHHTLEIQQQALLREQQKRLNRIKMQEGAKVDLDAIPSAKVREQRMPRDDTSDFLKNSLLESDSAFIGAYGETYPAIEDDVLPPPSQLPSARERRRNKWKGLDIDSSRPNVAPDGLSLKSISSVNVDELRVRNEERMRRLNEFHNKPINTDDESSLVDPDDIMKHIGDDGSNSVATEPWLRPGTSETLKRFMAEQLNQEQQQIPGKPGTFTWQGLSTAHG

Holding throughout (assay): log2 fold change, soluble protein after heating vs DMSO (PISA); higher = thermal stabilisation; K562 lysate, 10 uM; active = over 0.2 and 3.5 SD of the protein, either way, in both replicates (recomputed)
Compound in one assay: CCCS(=O)(=O)Nc1ccc(F)c(C(=O)c2c[nH]c3ncc(-c4ccc(Cl)cc4)cc23)c1F [vemurafenib]
Summed up:
(§1)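 Soluble protein was defined as the supernatant remaining after 21,000xg for 90 min, following pooling of heated aliquots and adjustment to 0.5% NP-40 at 4°C. Before that, crude K562 extract at 1 mg/mL protein in PBS pH 7.4 with 1 mM MgCl2 was treated with 10 μM compound for 30 min and heated for 3 min across 48°C-58°C. Quantification used TMTpro 16plex LC-MS/MS with channel sums equalised, and values are log-two fold changes in thermal stability relative to solvent controls from duplicates.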

Compound in assay [1]: CCCS(=O)(=O)Nc1ccc(F)c(C(=O)c2c[nH]c3ncc(Cl)cc23)c1F
The procedure, abridged:
as §1

Compound in the next assay: CCN(CCCOc1ccc2c(Nc3cc(CC(=O)Nc4cccc(F)c4)[nH]n3)ncnc2c1)CCOP(=O)(O)O [barasertib]
The procedure, abridged: as §1

Compound in assay [2]: CC[C@@H]1C(=O)N(C)c2cnc(Nc3ccc(C(=O)NC4CCN(C)CC4)cc3OC)nc2N1C1CCCC1
Summed up: as §1

Compound in another assay: CC[C@@H]1C(=O)N(C)c2cnc(Nc3ccc(C(=O)N[C@H]4CC[C@H](N5CCN(CC6CC6)CC5)CC4)cc3OC)nc2N1C(C)C [volasertib]
Summed up:
as §1

Compound in assay [3]: CCn1c(C(=O)N(C2CC2)C2CC2)cc2c3c(ncn3C)c(Nc3cc(C)n(C)n3)nc21
The procedure, abridged:
as §1

Compound in assay [4]: CCn1cc(-c2ccnc3[nH]c(-c4cccc(CN(C)C)c4)cc23)c(-c2ccc(NC(=O)N(C)C)cc2)n1
Summed up: as §1

Compound in assay [5]: CN1CCC(CNc2ccc3ncc(-c4cccc(OC(F)(F)F)c4)n3n2)CC1
Summed up:
as §1

Compound in a further assay: CN1CCN(CCOc2cc(OC3CCOCC3)c3c(Nc4c(Cl)ccc5c4OCO5)ncnc3c2)CC1 [saracatinib]
Summed up: as §1

Compound in another assay: CN1CCN(c2nc(C3=C(c4c[nH]c5ccccc45)C(=O)NC3=O)c3ccccc3n2)CC1 [sotrastaurin]
The procedure, abridged:
as §1

The other results are listed elsewhere or left out.

For the target CYCS (UniProt P99999), the log2 fold change is inactive: -0.011 with vemurafenib; inactive: -0.001 in assay [1]; inactive: -0.01 with barasertib; inactive: 0.061 in assay [2]; inactive: 0.041 with volasertib; inactive: 0.018 in [3]. Moreover, the log2 fold change in assay [4] was inactive: -0.025; in [5], inactive: 0.052; with saracatinib, inactive: 0.008; with sotrastaurin it was inactive: -0.017.
Turning to CUL3 (UniProt Q13618), the log2 fold change is inactive: 0.007 with vemurafenib; inactive: 0.011 in [1]; inactive: 0.002 with barasertib; inactive: -0.028 in assay [2]; inactive: -0.008 with volasertib; inactive: 0.028 in assay [3]. The log2 fold change was inactive: 0 in assay [4], inactive: -0.051 in [5], inactive: 0.006 with saracatinib and inactive: -0.003 with sotrastaurin.
In the case of CSK (UniProt P41240), the log2 fold change with vemurafenib was inactive: 0.43; in [1], inactive: 0.304; with barasertib, inactive: 0.187; in [2], inactive: -0.046; with volasertib, inactive: -0.09; in assay [3], inactive: -0.068. Besides, the log2 fold change was inactive: 0.015 in [4], inactive: 0.096 in assay [5], inactive: 0.37 in the assay with saracatinib and inactive: -0.043 with sotrastaurin.
In the case of CRNN (UniProt Q9UBG3), the log2 fold change in the assay with vemurafenib is inactive: 0.939.
In the case of CWC22 (UniProt Q9HCG8), the log2 fold change with vemurafenib was inactive: 0.002; in assay [1], inactive: 0.045; with barasertib, inactive: 0.028; in assay [2], inactive: -0.209; with volasertib, inactive: -0.033; in assay [3], inactive: 0.017. Further, the log2 fold change in [4] is active: 0.393; in assay [5], active: -0.273; with saracatinib it was inactive: -0.052; in the assay with sotrastaurin, inactive: -0.013.
Regarding CUTC (UniProt Q9NTM9), the log2 fold change in the assay with vemurafenib was inactive: -0.025; in assay [1] it was inactive: 0.013; with barasertib it was inactive: 0.009; in [2], inactive: -0.031; with volasertib, inactive: 0.024; in assay [3], inactive: -0.043. The log2 fold change in [4] is inactive: -0.062; in assay [5] it was inactive: 0.078; with saracatinib, inactive: -0.011; in the assay with sotrastaurin it was inactive: -0.017.
Take CTTN (UniProt Q14247): the log2 fold change is inactive: -0.008 in the assay with vemurafenib; inactive: -0.001 in assay [1]; inactive: -0.054 in the assay with barasertib; inactive: 0.038 in assay [2]; inactive: 0.033 with volasertib; inactive: 0.002 in [3]. Moreover, the log2 fold change in assay [4] is inactive: -0.006; in [5], inactive: 0.052; with saracatinib it was inactive: -0.06; in the assay with sotrastaurin it was inactive: 0.025.
For CSNK2B (UniProt P67870), the log2 fold change is inactive: -0.042 with vemurafenib; inactive: 0.03 in assay [1]; inactive: -0.032 with barasertib; inactive: -0.007 in assay [2]; inactive: -0.038 in the assay with volasertib; inactive: 0.015 in [3]. For the same target, the log2 fold change in assay [4] is inactive: 0.01; in assay [5], inactive: 0.124; with saracatinib, inactive: -0.066; with sotrastaurin, inactive: -0.029.
For CYFIP2 (UniProt Q96F07), the log2 fold change with vemurafenib is inactive: -0.037; in assay [1] it was inactive: 0.001; in the assay with barasertib it was inactive: -0.005; in assay [2] it was inactive: 0.022; in the assay with volasertib, inactive: -0.015; in assay [3], inactive: -0.031. Also, the log2 fold change in assay [4] was inactive: -0.079; in assay [5], inactive: -0.002; with saracatinib, inactive: 0.016; in the assay with sotrastaurin, inactive: 0.019.
On to CTNNA2 (UniProt P26232), for which the log2 fold change in the assay with vemurafenib is inactive: 0.044; in [1] it was inactive: 0.028; with barasertib it was inactive: 0.035; in [2] it was inactive: 0.025; with volasertib it was inactive: 0.006; in [3] it was inactive: -0.015. Further, the log2 fold change in assay [4] is inactive: -0.106; in [5] it was inactive: 0.066; in the assay with saracatinib, inactive: 0.028; in the assay with sotrastaurin, inactive: -0.093.
Consider CYC1 (UniProt P08574), for which the log2 fold change with vemurafenib is inactive: -0.086; in [1] it was inactive: -0.024; in the assay with barasertib, inactive: -0.018; in [2], inactive: -0.077; in the assay with volasertib, inactive: 0.005; in assay [3], inactive: 0.01. The log2 fold change was inactive: 0.132 in assay [4], inactive: 0 in assay [5], inactive: 0.003 with saracatinib and inactive: 0 with sotrastaurin.
Regarding CTCF (UniProt P49711), the log2 fold change is inactive: 0.032 with vemurafenib; inactive: 0.01 in assay [1]; inactive: -0.017 with barasertib; inactive: 0.063 in assay [2]; inactive: 0 in the assay with volasertib; inactive: -0.003 in [3]. The log2 fold change in assay [4] is inactive: 0.103; in assay [5] it was inactive: -0.084; in the assay with saracatinib, inactive: 0; with sotrastaurin, inactive: 0.019.
For CREBBP (UniProt Q92793), the log2 fold change with vemurafenib is inactive: 0.022; in assay [1], inactive: -0.064; with barasertib, inactive: 0.001; in assay [2] it was inactive: 0.042; with volasertib, inactive: -0.074; in [3], inactive: -0.017. In addition, the log2 fold change in assay [4] is inactive: 0.079; in assay [5], inactive: -0.004; in the assay with saracatinib, inactive: 0.017; in the assay with sotrastaurin, inactive: -0.001.
For the target CSPP1 (UniProt Q1MSJ5), the log2 fold change with vemurafenib was inactive: 0.03; in assay [1], active: -0.505; in the assay with barasertib, inactive: 0.026; in assay [2] it was inactive: 0.057; in the assay with volasertib, inactive: 0.125; in assay [3], inactive: 0.05. The log2 fold change in assay [4] was inactive: 0.029; in assay [5] it was inactive: -0.006; in the assay with saracatinib, inactive: -0.049; in the assay with sotrastaurin, inactive: -0.046.
On to CTBP1 (UniProt Q13363), for which the log2 fold change with vemurafenib was inactive: 0.007; in [1], inactive: 0.022; with barasertib, inactive: 0.038; in assay [2], inactive: 0.031; with volasertib, inactive: 0.001; in assay [3], inactive: 0.02. Also, the log2 fold change was inactive: -0.054 in assay [4], inactive: 0.019 in assay [5], inactive: -0.027 with saracatinib and inactive: -0.08 with sotrastaurin.
